Results deposited as PubChem BioAssay AID1224831 (NIAID, 2016).

Test: 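Retesting screen hits on the TLR4-driven TNF response with six separate siRNAs each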 (follow-up of hits)
Cells: human THP-1 B5 monocytic leukaemia cells carrying a TNF promoter luciferase reporter, made macrophage-like with PMA
Knock-down reagent: single siRNA against human genes, 50 nM
Timing: about 68 h of knock-down, then 4 h LPS
Treatment: LPS (Salmonella minnesota, TLR-grade) at 10 ng/ml for 4 h; PMA 5 ng/ml present during knock-down
Read-out: 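TNF promoter reporter read as dual luciferase ratio after 4 h LPS, normalised per plate to its median, given as replicate mean robust z-score per siRNA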
Scale: TNF reporter z-score: higher = stronger LPS-induced TNF reporter signal; z-score, median over gene's siRNAs: higher = stronger TNF reporter signal across the gene's siRNAs
Active means: 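Active when the replicate mean z-score is about -1 or lower, or about 1.5 or higher; lowered and raised TNF reporter signal both count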
Meaning of the calls: active = changed TNF reporter (either direction); inactive = little change
The deposit covers about 3,500 reagents; this is an unselected part. Of all reagents, 731 (21%) are marked active. 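Active means either lowered or raised reporter signal; the gene-median score did not drive the per-siRNA calls.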 Reagents against one gene are numbered here.

target,reagent no.,"TNF reporter z-score, replicate mean","z-score, median over gene's siRNAs",Outcome
GPR156,1,-0.63,-0.195,inactive
GPR156,2,-0.32,-0.195,inactive
GPR156,3,-0.07,-0.195,inactive
GPR156,4,-0.87,-0.195,inactive
GPR156,5,0.04,-0.195,inactive
GPR156,6,0.15,-0.195,inactive
IHO1,1,-0.38,0.61,inactive
IHO1,2,0.33,0.61,inactive
IHO1,3,0.99,0.61,inactive
IHO1,4,0.89,0.61,inactive
IHO1,5,0.99,0.61,inactive
IHO1,6,-1.8,0.61,active
MRPS35,1,-1.31,-0.17,active
MRPS35,2,-0.93,-0.17,inactive
MRPS35,3,0.56,-0.17,inactive
MRPS35,4,-0.13,-0.17,inactive
MRPS35,5,0.95,-0.17,inactive
MRPS35,6,-0.21,-0.17,inactive
RWDD2B,1,-1.05,-0.47,active
RWDD2B,2,0.71,-0.47,inactive
RWDD2B,3,0.3,-0.47,inactive
RWDD2B,4,-0.61,-0.47,inactive
RWDD2B,5,-0.82,-0.47,inactive
RWDD2B,6,-0.33,-0.47,inactive
TIPARP,1,-2.07,-1.93,active
TIPARP,2,-2.94,-1.93,active
TIPARP,3,-2.12,-1.93,active
TIPARP,4,-1.78,-1.93,active
TIPARP,5,-1.46,-1.93,active
TIPARP,6,-0.82,-1.93,inactive

The list goes on, starting with the last 4 of the part before.
target,reagent no.,"TNF reporter z-score, replicate mean","z-score, median over gene's siRNAs",Outcome
TIPARP,3,-2.12,-1.93,active
TIPARP,4,-1.78,-1.93,active
TIPARP,5,-1.46,-1.93,active
TIPARP,6,-0.82,-1.93,inactive
BOK,1,-1.48,-0.49,active
BOK,2,-0.53,-0.49,inactive
BOK,3,-0.92,-0.49,inactive
BOK,4,-0.36,-0.49,inactive
BOK,5,0.87,-0.49,inactive
BOK,6,-0.45,-0.49,inactive
GNAT2,1,0.1,0.145,inactive
GNAT2,2,0.3,0.145,inactive
GNAT2,3,-0.19,0.145,inactive
GNAT2,4,0.19,0.145,inactive
GNAT2,5,0.2,0.145,inactive
GNAT2,6,-0.17,0.145,inactive
PRND,1,0.93,0.89,inactive
PRND,2,-0.31,0.89,inactive
PRND,3,0.85,0.89,inactive
PRND,4,1.84,0.89,active
PRND,5,-2.05,0.89,active
PRND,6,1.61,0.89,active
SACK1F,1,-0.61,0.095,inactive
SACK1F,2,1.86,0.095,active
SACK1F,3,-0.44,0.095,inactive
SACK1F,4,0.24,0.095,inactive
SACK1F,5,3.29,0.095,active
SACK1F,6,-0.05,0.095,inactive
SDE2,1,-0.63,0.04,inactive
SDE2,2,-0.34,0.04,inactive
SDE2,3,0.13,0.04,inactive
SDE2,4,-0.05,0.04,inactive
SDE2,5,0.97,0.04,inactive
SDE2,6,0.55,0.04,inactive
